Test results taken from the supplement of paper PMC4604168 (melanoma cell lines).
Some of the results follow. Single values are uncertain, as repeats are few or missing.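 Imaging used 1,536-well plates; nuclei positive for cleaved PARP by antibody were divided by total DNA-stained nuclei to yield the apoptosis fraction. Doses for screening kept most cells viable, and cell lines differ markedly in resting and induced cleaved-PARP levels.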

tested on: IST-MEL1; assay: cleaved PARP positive nuclei fraction relative to DMSO control; melanoma cells; higher = more apoptosis; conditions: library dose: low library concentration; 72 h

Row | SMILES | cleaved PARP positive nuclei fraction [%]
1 | CC(C)(C)c1cnc(CSc2cnc(NC(=O)C3CCNCC3)s2)o1 + Oc1cc(-c2nc(-c3ccccc3)[nH]c2-c2ccncc2)ccc1Cl [L779450] (first compound 0.01 µM, partner dose 0.2 µM) | 41.7
2 | Cc1nc(Nc2ncc(C(=O)Nc3c(C)cccc3Cl)s2)cc(N2CCN(CCO)CC2)n1 [dasatanib] + COC(=O)c1sccc1S(=O)(=O)Nc1ccc(Nc2ccccc2)cc1OC [GSK0660] (first compound 0.004 µM, partner dose 1 µM) | 77.4
3 | C#Cc1cccc(Nc2ncnc3cc(OCCOC)c(OCCOC)cc23)c1 [erlotinib] + O=C(O)C(=O)Nc1sc2c(c1C(=O)O)CCNC2 [TCS401] (first compound 0.8 µM, partner dose 1.66667 µM) | 268
4 | Cn1c(Nc2ccc(C(F)(F)F)cc2)nc2cc(Oc3ccnc(-c4ncc(C(F)(F)F)[nH]4)c3)ccc21 + CCCCCCCCCCCC1=C(O)C(=O)C=C(O)C1=O [Embelin] (first compound 0.08 µM, partner dose 1.2 µM) | 174
5 | Cn1cncc1[C@@](N)(c1ccc(Cl)cc1)c1ccc2c(c1)c(-c1cccc(Cl)c1)cc(=O)n2C [tipifarnib] + COc1cc2ncnc(Nc3ccc(Oc4ccccc4)cc3)c2cc1OC [SrcI1] (first compound 0.01 µM, partner dose 2 µM) | 91.2
6 | C#Cc1cccc(Nc2ncnc3cc(OCCOC)c(OCCOC)cc23)c1 [erlotinib] + COc1cc2ncnc(Nc3ccc(Oc4ccccc4)cc3)c2cc1OC [SrcI1] (first compound 0.8 µM, partner dose 2 µM) | 40.9
7 | Nc1cccc2c1CN(C1CCC(=O)NC1=O)C2=O (stereo not drawn) [lenalidomide] + Cn1cc(/C=C2\C(=O)Nc3cccnc32)c2ccccc21 [GW441756] (first compound 1 µM, partner dose 0.4 µM) | 90.9
8 | Cc1nc(Nc2ncc(C(=O)Nc3c(C)cccc3Cl)s2)cc(N2CCN(CCO)CC2)n1 [dasatanib] + c1cc(-c2cnn3cc(-c4ccc(OCCN5CCCCC5)cc4)cnc23)ccn1 [Dorsomorphin] (first compound 0.004 µM, partner dose 0.4 µM) | 212
9 | Cn1cncc1[C@@](N)(c1ccc(Cl)cc1)c1ccc2c(c1)c(-c1cccc(Cl)c1)cc(=O)n2C [tipifarnib] + O=C(O)C(=O)Nc1sc2c(c1C(=O)O)CCNC2 [TCS401] (first compound 0.01 µM, partner dose 1.66667 µM) | 260
10 | Cn1c(Nc2ccc(C(F)(F)F)cc2)nc2cc(Oc3ccnc(-c4ncc(C(F)(F)F)[nH]4)c3)ccc21 + O=C(Nc1ccccc1)c1cc([N+](=O)[O-])ccc1Cl [GW9662] (first compound 0.08 µM, partner dose 2 µM) | 42.7
11 | Cn1cncc1[C@@](N)(c1ccc(Cl)cc1)c1ccc2c(c1)c(-c1cccc(Cl)c1)cc(=O)n2C [tipifarnib] + Oc1nc(-c2ccc(C(F)(F)F)cc2)nc2c1CSCC2 [XAV939] (first compound 0.01 µM, partner dose 2 µM) | 259
12 | Cn1nnc2c(C(N)=O)ncn2c1=O [temozolomide] + COc1ccc2c(c1)CCC1C2CCC2(C)C(NCCCCCCN3C(=O)C=CC3=O)CCC12 [U73122] (first compound 2 µM, partner dose 0.4 µM) | 64

tested on: LB2518-MEL; assay: as above; conditions: library dose: low library concentration; 72 h

Row | SMILES | cleaved PARP positive nuclei fraction [%]
13 | OCCn1cc(-c2cnc3nnn(Cc4ccc5ncccc5c4)c3n2)cn1 + Oc1cc(-c2nc(-c3ccccc3)[nH]c2-c2ccncc2)ccc1Cl [L779450] (first compound 1 µM, partner dose 0.2 µM) | 146
14 | CO[C@@H]1[C@H](N(C)C(=O)c2ccccc2)C[C@H]2O[C@]1(C)n1c3ccccc3c3c4c(c5c6ccccc6n2c5c31)C(=O)NC4 [Midostaurin] + O=C(Nc1ccccc1)c1cc([N+](=O)[O-])ccc1Cl [GW9662] (first compound 0.08 µM, partner dose 2 µM) | 132
15 | CC1(C)NC(=O)N(c2ccc([N+](=O)[O-])c(C(F)(F)F)c2)C1=O [nilutamide] + COC(=O)c1sccc1S(=O)(=O)Nc1ccc(Nc2ccccc2)cc1OC [GSK0660] (first compound 1 µM, partner dose 1 µM) | 41.5
16 | Cc1nc(Nc2ncc(C(=O)Nc3c(C)cccc3Cl)s2)cc(N2CCN(CCO)CC2)n1 [dasatanib] + Cc1cc([N+](=O)[O-])ccc1NS(=O)(=O)c1cc(Cl)ccc1Cl [FH535] (first compound 0.004 µM, partner dose 1 µM) | 95.3
17 | C[C@@H]1CCN(C(=O)CC#N)C[C@@H]1N(C)c1ncnc2[nH]ccc12 + O=C(Nc1ccccc1)c1cc([N+](=O)[O-])ccc1Cl [GW9662] (first compound 1 µM, partner dose 2 µM) | 82.7
18 | C=CCn1c(=O)c2cnc(Nc3ccc(N4CCN(C)CC4)cc3)nc2n1-c1cccc(C(C)(C)O)n1 + O=c1cc(-c2cccc3c2Sc2ccccc2S3)oc(N2CCOCC2)c1 [KU55933] (first compound 0.02 µM, partner dose 1 µM) | 164
19 | Cc1ccc(NC(=O)c2cccc(N(C)C)c2)cc1NC(=O)c1ccc(O)cc1 + N#Cc1c(O)c2c(-c3ccc(-c4ccccc4O)cc3)csc2[nH]c1=O [A769662] (first compound 2 µM, partner dose 2 µM) | 166
20 | Cc1cc(N2CCOCC2)cc2[nH]c(-c3c(NC[C@@H](O)c4cccc(Cl)c4)cc[nH]c3=O)nc12 + O=C(O)C(=O)Nc1sc2c(c1C(=O)O)CCNC2 [TCS401] (first compound 0.2 µM, partner dose 1.66667 µM) | 84.2
21 | C=CCn1c(=O)c2cnc(Nc3ccc(N4CCN(C)CC4)cc3)nc2n1-c1cccc(C(C)(C)O)n1 + CCN(CC)CCCCNc1ncc2cc(-c3cc(OC)cc(OC)c3)c(NC(=O)NC(C)(C)C)nc2n1 [PD173074] (first compound 0.02 µM, partner dose 0.1 µM) | 123
22 | Cc1cc(N2CCOCC2)cc2[nH]c(-c3c(NC[C@@H](O)c4cccc(Cl)c4)cc[nH]c3=O)nc12 + O=c1cc(-c2cccc3c2Sc2ccccc2S3)oc(N2CCOCC2)c1 [KU55933] (first compound 0.2 µM, partner dose 1 µM) | 143
23 | C#Cc1cccc(Nc2ncnc3cc(OCCOC)c(OCCOC)cc23)c1 [erlotinib] + O=c1cc(-c2cccc3c2Sc2ccccc2S3)oc(N2CCOCC2)c1 [KU55933] (first compound 0.8 µM, partner dose 1 µM) | 144
24 | Cn1c(Nc2ccc(C(F)(F)F)cc2)nc2cc(Oc3ccnc(-c4ncc(C(F)(F)F)[nH]4)c3)ccc21 + O=C1NC(=O)/C(=C/c2ccc(-c3ccc(F)cc3O)o2)S1 [AS252424] (first compound 0.08 µM, partner dose 1 µM) | 324
25 | NC(=O)Nc1cc(-c2cccc(F)c2)sc1C(=O)N[C@H]1CCCNC1 + CCCCCCCCCCCC1=C(O)C(=O)C=C(O)C1=O [Embelin] (first compound 0.02 µM, partner dose 1.2 µM) | 55.1
26 | C=CCn1c(=O)c2cnc(Nc3ccc(N4CCN(C)CC4)cc3)nc2n1-c1cccc(C(C)(C)O)n1 + COc1cc2ncnc(Nc3ccc(Oc4ccccc4)cc3)c2cc1OC [SrcI1] (first compound 0.02 µM, partner dose 2 µM) | 76
27 | Cn1c(Nc2ccc(C(F)(F)F)cc2)nc2cc(Oc3ccnc(-c4ncc(C(F)(F)F)[nH]4)c3)ccc21 + N#Cc1c(O)c2c(-c3ccc(-c4ccccc4O)cc3)csc2[nH]c1=O [A769662] (first compound 0.08 µM, partner dose 2 µM) | 74.9
28 | Cn1nnc2c(C(N)=O)ncn2c1=O [temozolomide] + COc1cc(N2CCC(N3CCN(C)CC3)CC2)ccc1Nc1ncc(Cl)c(Nc2ccccc2S(=O)(=O)C(C)C)n1 [NVP-TAE684] (first compound 2 µM, partner dose 0.08 µM) | 69.2
29 | O=C(CCCCCCC(=O)Nc1ccccc1)NO [vorinostat] + COc1ccc(COc2ccc(Cc3cnc(N)nc3N)cc2OC)cc1 [GW2580] (first compound 0.08 µM, partner dose 1 µM) | 84.4
30 | C#Cc1cccc(Nc2ncnc3cc(OCCOC)c(OCCOC)cc23)c1 [erlotinib] + Oc1cc(-c2nc(-c3ccccc3)[nH]c2-c2ccncc2)ccc1Cl [L779450] (first compound 0.8 µM, partner dose 0.2 µM) | 131
31 | C#Cc1cccc(Nc2ncnc3cc(OCCOC)c(OCCOC)cc23)c1 [erlotinib] + N#Cc1c(O)c2c(-c3ccc(-c4ccccc4O)cc3)csc2[nH]c1=O [A769662] (first compound 0.8 µM, partner dose 2 µM) | 93.7
32 | COCC[n+]1c2c(n(Cc3cnccn3)c1C)C(=O)c1ccccc1C2=O + COc1ccc(-c2ccc3c(N4CCOCC4)nc(N4C[C@@H](C)O[C@@H](C)C4)nc3n2)cc1CO [KU0063794] (first compound 0.0004 µM, partner dose 0.02 µM) | 332
33 | COc1cc(Nc2ncc(F)c(Nc3ccc4c(n3)NC(=O)C(C)(C)O4)n2)cc(OC)c1OC [Tamatinib] + O=C1NC(=O)/C(=C/c2ccc(-c3ccc(F)cc3O)o2)S1 [AS252424] (first compound 0.4 µM, partner dose 1 µM) | 493

As entered above:
cleaved PARP positive nuclei fraction [%], OCCn1cc(-c2cnc3nnn(Cc4ccc5ncccc5c4)c3n2)cn1 + Oc1cc(-c2nc(-c3ccccc3)[nH]c2-c2ccncc2)ccc1Cl [L779450] (first compound 1 µM, partner dose 0.2 µM) is entered as 146
cleaved PARP positive nuclei fraction [%], Cc1cc(N2CCOCC2)cc2[nH]c(-c3c(NC[C@@H](O)c4cccc(Cl)c4)cc[nH]c3=O)nc12 + O=C(O)C(=O)Nc1sc2c(c1C(=O)O)CCNC2 [TCS401] (first compound 0.2 µM, partner dose 1.66667 µM) is entered as 84.2
